# Reference: patent US20120052017A1, “METHOD FOR PRODUCING CONTRAST AGENT FOR OPTICAL IMAGING” (CANON KABUSHIKI KAISHA, priority 2010, published 2012)
# At least one read-out could not be matched to a standard name with certainty.
# Experiments:
# [1] = Solubility of ICG in chloroform when phospholipid was added (absorption curve integral); type: physicochemical; conditions: double molar equivalents of phospholipid added to ICG; compared with ICG alone in chloroform
# [2] = Solubility of ICG in dichloromethane when phospholipid was added; type: physicochemical; conditions: 2 molar equivalents of phospholipid added to ICG; compared with ICG alone in dichloromethane
# Experimental: 2 molar equivalents of a phospholipid was added to 5.5 mg of ICG. As the phospholipid, DSPC or DOPE was used. Each of these ICG-phospholipid mixtures was dissolved in 2 mL of dichloromethane. Controls were brepared by dissolving in 10 G in methanol or dichloromethane. All these 10 G solutions were filtered with a filter having a pore size of 0.2 μm and then diluted 500-fold with dichloromethane.
Compound,improvement of solubility of ICG in chloroform when phospholipid was added [1],improvement of solubility of ICG in dichloromethane when phospholipid was added [2]
"CCCCCCCC/C=C\CCCCCCCC(=O)OC[C@H](COP(=O)(O)OCCN)OC(=O)CCCCCCC/C=C\CCCCCCCC [DOPE, 1,2-Dioleoyl-sn-glycero-3-phosphoethanolamine]",approximately 50 times,approximately six
"CCCCCCCCCCCCCCCCCC(=O)OC[C@H](COP(=O)([O-])OCC[N+](C)(C)C)OC(=O)CCCCCCCCCCCCCCCCC [DSPC, 1,2-Distearoyl-sn-glycero-3-phosphocholine]",approximately 50 times,approximately six
"CCCCCCCCCCCCCCCCCC(=O)OC[C@H](COP(=O)(O)OCCN)OC(=O)CCCCCCCCCCCCCCCCC [DSPE, 1,2-Distearoyl-sn-glycero-3-phosphoethanolamine]",approximately 50 times,
"CCCCCCCCCCCCCCCCCC(=O)OC[C@H](COP(=O)(O)OC[C@H](N)C(=O)O)OC(=O)CCCCCCCCCCCCCCCCC [DSPS, 1,2-Distearoyl-sn-glycero-3-phospho-L-serine]",approximately 50 times,
